Data: paper PMC3912200, “Structural and Functional Characterization of Cargo-Binding Sites on the μ4-Subunit of Adaptor Protein Complex 4” (PLoS ONE, 2014)
Where a chain is given by its changes, count along the chain named. Numbers in names are those of the source.

B1: μ4-D190A: recombinant μ4 C-terminal domain with single mutation D190A at the μ2-binding site (protein)
chain: QQSKVAPSSAASRPVLSSRSDQSQKNEVFLAVVERLSVLIASNGSLLKVDVQGEIRLKSFLPSGSEMRIGLTEEFCVGKSELRGYGPGIRVDEVSFHSSVNLDEFESHRILRLQPPQGELTVMRYQLSDDLPSPLPFRLFPSVQWDRGSGRLQVYLKLRCDLLSKSQALNVRLHLPLPRGVVSLSQELSSPEQKAELAEGALRWDLPRVQGGSQLSGLFQMDVPGPPGPPSHGLSTSASPLGLGPASLSFELPRHTCSGLQVRFLRLAFRPCGNANPHKWVRHLSHSDAYVIRI
modifications: left off: GST, N-terminal, cleaved
B2: μ4-R283D: μ4 with the single mutation R283D at the μ4-binding site (C-terminal domain; untagged full-length in b45) (protein)
chain: B1 chain with A31D, R124D
modifications: left off: GST, N-terminal, cleaved
B3: μ4-D190S: D190S mutant of μ4 (C-terminal domain in vitro; full-length, HA-tagged or untagged, in cells) (protein)
chain: B1 chain with A31S
modifications: left off: GST, N-terminal, cleaved

Each molecule was assayed on proteinase K (assay: Limited proteolysis with proteinase K). Settings: C-terminal domain, 50°C, 10 min, pH 7.4, SDS-PAGE.

Molecule	proteolysis pattern / degradation
B1	almost completely degraded
B2	three fragments that likely corresponded to the stable fragments generated at 25 °C
B3	indistinguishable from that of wild-type μ4
